Results taken from the supplement of paper PMC7858590.
Several values for one entry are separate records, joined by “and”; a condition that tells them apart may be missing. Equal values may be shown once. ± gives the standard deviation of the averaged measurements. Whole data set: some 3,800 compounds, median “cell shape (eccentricity) Z-score vs DMSO control” near 1.1, cut for the lowest 2% near -4.7. The list shows a part of the results.

Test system: human monocyte-derived macrophages (M0)
Experiment: cell shape (eccentricity) Z-score vs DMSO control; higher = more elongated, M2-like morphology
Settings: 20 µM; 24 h; macrophage state: M0 (M-CSF)

In order of falling “cell shape (Z-score)” value:
1. CC1(C)CC[C@]2(C(=O)O)CC[C@]3(C)C(=CCC4[C@@]5(C)CC[C@@H](O)C(C)(C)C5CC[C@]43C)C2C1 (some centres undefined)  9.58
2. O=c1cc(-c2ccccc2)oc2ccc(O)cc12  5.06 ± 3.6
3. Nc1nc(OCc2cc(Br)cs2)c2[nH]cnc2n1  4.54
4. C[C@H]1C[C@@H]2[C@H]([C@@H](O)C[C@@]3(C)[C@H]2CC[C@]3(O)C(=O)CO)[C@@]2(C)C=CC(=O)C=C12  3.78
5. COc1c(OC)c2c(C)cccc2oc1=O  3.28
6. CO[C@H]1C[C@H](O[C@H]2[C@H](C)[C@@H](O[C@@H]3O[C@H](C)C[C@H](N(C)C)[C@@H]3OC(C)=O)[C@@H](C)C[C@]3(CO3)C(=O)[C@H](C)[C@@H](OC(C)=O)[C@@H](C)[C@@H](C)OC(=O)[C@@H]2C)O[C@@H](C)[C@@H]1OC(C)=O  3.12
7. Cc1c(C)c2c(c(C)c1O)CCC(C)(C(=O)O)O2 (centres undefined)  3.07
8. NC[C@@H]1O[C@H](c2ccccc2)Cc2c1ccc(O)c2O  2.59
9. COc1ccc(C(=O)NCCc2ccccc2)cc1Cl  2.08
10. O=c1cc(-c2ccc(O)cc2)oc2cc(O[C@@H]3O[C@H](CO)[C@@H](O)[C@H](O)[C@H]3O[C@@H]3OC[C@](O)(CO)[C@H]3O)cc(O)c12  2.06
11. C[C@H](CO)N1C[C@H](C)[C@H](CN(C)C(=O)NC2CCCCC2)Oc2c(NS(=O)(=O)c3ccc(F)cc3)cccc2C1=O  1.99
12. O=P(O)(O)C(Sc1ccc(Cl)cc1)P(=O)(O)O  1.64
13. COC1C(O)C(CO)OC1n1cnc2c(NC3CCCCC3)ncnc21 (centres undefined)  1.49
14. CC(CCc1ccccc1)NCC(O)c1ccc(O)c(C(N)=O)c1 (centres undefined)  1.37
15. COc1cc(/C=C/CO[C@@H]2O[C@H](CO)[C@@H](O)[C@H](O)[C@H]2O)ccc1O  1.26
16. CCOC(=O)C1=C(C)NC(=S)NC1c1cccc(O)c1 (centres undefined)  0.93
17. C[C@H]1CN([C@@H](C)CO)C(=O)Cc2cc(NC(=O)NC3CCCCC3)ccc2O[C@H]1CN(C)C(=O)Nc1cccc2ccccc12  0.901
18. O=C1[C@H](Cc2ccc(O)cc2)N2C(=O)CCN(C(=O)NCc3ccccc3)[C@H]2CN1Cc1cccc2ccccc12  0.847
19. C[C@@H]1O[C@@H](O[C@@H]2CC[C@@]3(C)C(CC[C@]4(C)C3CC=C3[C@@H]5CC(C)(C)CC[C@]5(C(=O)O[C@@H]5O[C@H](CO)[C@@H](O)[C@H](O)[C@H]5O)CC[C@]34C)[C@]2(C)CO)[C@H](O)[C@H](O[C@@H]2OC[C@@H](O)[C@H](O)[C@H]2O)[C@H]1O (some centres undefined)  0.722
20. Clc1ccc2nsnc2c1NC1=NCCN1  0.611
21. CC(O)CCCc1cc(O)cc(O[C@@H]2O[C@H](CO)[C@@H](O)[C@H](O)[C@H]2O)c1 (some centres undefined)  0.302
22. C=C[C@@]1(C)C[C@@]2(OC[C@@]3(C)O[C@@H]23)Oc2c1c(=O)oc1cccc(C)c21  -0.147 ± 1.4
23. CC1(C)CC[C@]2(C(=O)O[C@@H]3O[C@H](CO)[C@@H](O)[C@H](O)[C@H]3O)CC[C@]3(C)C(=CCC4[C@@]5(C)C[C@@H](O)[C@H](O)[C@@](C)(COC(=O)c6cc(O)c(O)c(O)c6)C5[C@H](O)C[C@]43C)[C@@H]2C1 (some centres undefined)  -0.21
24. Cc1c(C2CCN(CCc3ccccc3)CC2)noc1-c1ccc(Cl)cc1  -0.315
25. N#CC(=Cc1ccc(O)c(O)c1)C(=O)Nc1ccccc1  -0.32
26. NC(=O)N1C(=O)C(C(=O)c2cccs2)c2cc(Cl)ccc21 (centres undefined)  -0.469
27. Oc1ccccc1-c1nnco1  -0.599
28. O=C(Nc1ccc(Cl)cc1)Nc1ccc(Cl)c(C(F)(F)F)c1  -1.14
29. O=C1c2ccc(O)cc2C(=O)c2ccc(O)cc21  -2.6
30. CN(C)C1C(=O)C(C(N)=O)C(=O)C2(O)C(=O)C3C(=O)c4c(O)ccc(Cl)c4C(O)C3CC12 (centres undefined)  -2.82
31. CCC(C)(C)N=C(NC#N)Nc1cccnc1  -3.06
32. Cc1cc2cc3c(C)cc(=O)oc3c(C)c2o1  -4.76
33. N=C(NCCCCCCNC(=N)NC(=N)Nc1ccc(Cl)cc1)NC(=N)Nc1ccc(Cl)cc1  -6.88

In the case of `CN(C(=O)CCCOc1ccc2[nH]c(=O)ccc2c1)C1CCCCC1`, the “cell shape (Z-score)” value is reported as 2.14 and 3.02.
